# Laboratory results taken from PubChem BioAssay AID1918958 (Molecular Pharmacology Branch, DTP, NCI, 2023).
# Further values from the same series stand in other lists.
# Test system: NCI-H196 complex spheroid viability
# Assay: Anticancer human tumor NCI-H196 cell line growth inhibition [LSD1];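 note: spheroids exposed to agents for 7 days before readout; 100% = DMSO vehicle control viability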
# Conditions: hits give low values
# From the text: Multicellular complex tumor spheroid response to LSD1 Inhibitor Iadademstat in combination with a variety of drugs and investigational agents in selected tumor cell lines
# The current study was undertaken to assess response to LSD1 inhibitors in combination with standard-of-care drugs and investigational agents in solid tumor complex spheroid models as well as in the K-562 leukemia. Complex spheroids include a stromal component modeled by human endothelial cells (HUVEC) and fibroblasts modeled by human mesenchymal stem cells (MSCs). The concentration ranges selected for each drug and investigational agent were based upon clinically achievable concentrations if the clinical Cmax of the agent was known.
# Compounds. The drugs and investigational agents used in this study are listed on Table 1. All of the agents used, including staurosporine (NSC755774) and gemcitabine (NSC613327), were obtained from the Developmental Therapeutics Program, NCI. FDA-approved anticancer drugs are available from the NCI at http://dtp.nci.nih.gov/branches/dscb/oncology_drugset_explanation.html. Drugs and investigational agents were >95% pure by proton nuclear magnetic resonance (NMR) and liquid chromatography/mass spectrometry (LC/MS). Stock solutions were prepared at 400x in DMSO, stored at -70 degrees C, and diluted in fresh medium prior to their use. The final concentration of DMSO in cell culture wells never exceeded 0.25% (v/v). The FDA-approved anticancer drug set is available from the Developmental Therapeutics Program at https://dtp.cancer.gov/organization/dscb/obtaining/available_plates.htm. All drugs and investigational agents were tested over a range starting from a high concentration at or near the clinical Cmax and decreasing in half-log increments. If the clinical Cmax for an agent had not been determined, the highest concentration tested was 10 microM.
# Cell Lines. […]
Structure (SMILES),"viability, T/C (compound 0.316 µM)","viability, T/C (compound 10 µM)","viability, T/C (compound 0.1 µM)"
NC1CCC(NC2CC2c2ccccc2)CC1 (stereo not drawn),99.2% [middle of 23 runs],88.9%,
NC1CC1c1ccc(-c2cccc(O)c2)cc1 (stereo not drawn),,,95.5% [middle of 25 runs]
